Measured values: PubChem BioAssay (EPA / NIEHS)
Where “and” joins values, the source holds several entries; their conditions need not be identical. Identical values can stand only once. This list was built around the results that the source calls inconclusive (neither active nor inactive); the mix of calls is not that of the screen. Where the call is inconclusive, the potency comes from a doubtful curve fit. Some compounds were tested as several samples or in several runs, with calls that do not always agree. Calls of active or inactive are those of the source. Rule for the calls: active = hit-call score of the fitted dose curve at least 0.9, where 1 is the maximum; inconclusive = response in the unintended direction; inactive = score below 0.9.

Amino acid sequences for entries named in this document (tags omitted). A change or cut given only in a name is not applied to a line headed by its entry.
UniProt Q96RI1: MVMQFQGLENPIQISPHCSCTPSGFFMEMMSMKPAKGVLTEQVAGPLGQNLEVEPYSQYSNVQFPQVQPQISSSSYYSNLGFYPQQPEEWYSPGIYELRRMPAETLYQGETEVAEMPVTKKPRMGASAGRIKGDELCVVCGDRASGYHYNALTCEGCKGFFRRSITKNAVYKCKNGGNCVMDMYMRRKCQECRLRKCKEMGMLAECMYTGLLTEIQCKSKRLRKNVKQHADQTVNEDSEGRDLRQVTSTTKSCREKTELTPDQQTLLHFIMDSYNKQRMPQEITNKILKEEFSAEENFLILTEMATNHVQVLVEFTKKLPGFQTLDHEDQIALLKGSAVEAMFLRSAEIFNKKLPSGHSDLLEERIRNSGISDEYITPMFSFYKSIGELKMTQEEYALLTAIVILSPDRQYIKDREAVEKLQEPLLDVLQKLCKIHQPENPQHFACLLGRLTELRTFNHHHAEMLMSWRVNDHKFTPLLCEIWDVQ
UniProt P19793: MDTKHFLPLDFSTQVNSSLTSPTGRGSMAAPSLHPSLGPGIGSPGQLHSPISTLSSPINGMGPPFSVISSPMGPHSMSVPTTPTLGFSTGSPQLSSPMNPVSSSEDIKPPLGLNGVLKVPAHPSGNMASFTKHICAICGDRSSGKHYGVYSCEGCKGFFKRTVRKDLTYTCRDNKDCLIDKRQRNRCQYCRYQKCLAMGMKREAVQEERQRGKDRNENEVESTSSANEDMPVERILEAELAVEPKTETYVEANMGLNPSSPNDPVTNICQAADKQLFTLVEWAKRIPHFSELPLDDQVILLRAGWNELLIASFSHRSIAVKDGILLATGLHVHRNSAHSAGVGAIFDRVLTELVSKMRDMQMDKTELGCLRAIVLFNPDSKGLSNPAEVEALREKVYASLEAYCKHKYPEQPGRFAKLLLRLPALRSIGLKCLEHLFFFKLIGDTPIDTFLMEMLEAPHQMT
UniProt P04637, whole entry, looked up: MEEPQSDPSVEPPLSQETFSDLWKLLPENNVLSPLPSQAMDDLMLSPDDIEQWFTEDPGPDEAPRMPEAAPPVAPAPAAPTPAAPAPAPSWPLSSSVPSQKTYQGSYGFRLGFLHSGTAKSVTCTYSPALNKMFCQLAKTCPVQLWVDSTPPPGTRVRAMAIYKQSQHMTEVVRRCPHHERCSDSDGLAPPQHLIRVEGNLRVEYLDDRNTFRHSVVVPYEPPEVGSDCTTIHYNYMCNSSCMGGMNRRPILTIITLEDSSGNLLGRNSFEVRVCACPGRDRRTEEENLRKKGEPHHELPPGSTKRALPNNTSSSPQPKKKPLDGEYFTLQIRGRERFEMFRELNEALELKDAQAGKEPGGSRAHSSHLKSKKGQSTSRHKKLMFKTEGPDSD

Assays:
[1] = target: Bile acid receptor (Homo sapiens) (UniProt Q96RI1); assay: OT_FXR_FXRSRC1_1440: Odyssey Thera (OT) 24-hour HEK293T Protein-Complementation Assay for Farnesoid X receptor/SRC-1 Co-activator (AID 2283384)
Summary of the method: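 HEK293T cells, 24 h after chemical dosing. FXR–SRC-1 coactivator interaction read as fluorescence from protein-fragment complementation of a split reporter. Gain of signal fitted against DMSO baseline.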

[2] = target: Retinoic acid receptor RXR-alpha (Homo sapiens) (UniProt P19793); assay: OT_NURR1_NURR1RXRa_0480: Odyssey Thera (OT) 8-hour HEK293T Protein Complementation Assay for Nurr1/retinoid X receptor (RXR) (AID 2283385)
Summary of the method: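 HEK293T cells expressing Nurr1 and RXRα fused to reporter fragments (protein-fragment complementation); fluorescence measured 8 h after dosing. Gain of signal fitted relative to DMSO.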

[3] = TOX21_p53_BLA_p2_viability: Viability Assessment in the Tox21 HCT-116 p53 Agonism Beta-lactamase Assay, Phase 2 (AID 2283591);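 note: compound exposure lasted 16 h at 37 °C; actives lower the ATP signal meaning cytotoxicity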
Summary of the method: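 HCT-116 p53-bla cells (4000/well) rested 5 h at 37C, then received compounds in DMSO (217-fold dilution) for 16 h at 37C, 5% CO2. After the CCF4 read, CellTiter-Glo was added; ATP luminescence was read after 30 min at room temperature.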

[4] = target: Cellular tumor antigen p53 (Homo sapiens) (UniProt P04637); assay: TOX21_p53_BLA_p2_ratio: Tox21 HCT-116 p53 Agonism Beta-lactamase Assay, Ratio, Phase 2 (AID 2283592)
Summary of the method: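 Gain-of-signal p53 agonism was scored from the beta-lactamase FRET ratio (460/530 nm, 405 nm excitation) in HCT116 cells treated 16 h at 37C, 5% CO2, with DMSO serving as negative control and baseline.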

[5] = target: Cellular tumor antigen p53 (Homo sapiens) (UniProt P04637); assay: TOX21_p53_BLA_p3_ratio: Tox21 HCT-116 p53 Agonism Beta-lactamase Assay, Ratio, Phase 3 (AID 2283596)
Summary of the method: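 HCT116 p53-bla cells (4000/well) given compound in DMSO (217-fold dilution) after 5 h, incubated 16 h at 37C. CCF4-AM substrate 2 h at room temperature; 460/530 nm emission ratio, gain fitted against DMSO.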

[6] = TOX21_p53_BLA_p4_viability: Viability Assessment in the Tox21 HCT-116 p53 Agonism Beta-lactamase Assay, Phase 4 (AID 2283597);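 note: hits lower the luminescence signal meaning cytotoxicity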
Summary of the method: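 Following a 16 h exposure at 37C, the treated HCT116 wells were first read for the FRET ratio. They were then lysed with CellTiter-Glo, and ATP luminescence was recorded after 30 min at room temperature.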

[7] = target: Cellular tumor antigen p53 (Homo sapiens) (UniProt P04637); assay: TOX21_p53_BLA_p5_ratio: Tox21 HCT-116 p53 Agonism Beta-lactamase Assay, Ratio, Phase 5 (AID 2283599)
Summary of the method: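 HCT-116 cells carrying a p53-inducible beta-lactamase reporter were seeded at 4000 cells/well and dosed after 5 h with compound in DMSO (217-fold dilution). After 16 h at 37C, CCF4-AM substrate was added for 2 h, and the 460/530 nm emission ratio was scored as gain-of-signal versus DMSO.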

[8] = TOX21_p53_BLA_p5_viability: Viability Assessment in the Tox21 HCT-116 p53 Agonism Beta-lactamase Assay, Phase 5 (AID 2283600)
Summary of the method: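 After the 460/530 nm beta-lactamase measurement, the wells received an ATP-detection luciferase reagent; signal was read 30 min later at RT. Compound treatment lasted 16 h on cells pre-incubated 5 h post-seeding.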

[9] = target: Cellular tumor antigen p53 (Homo sapiens) (UniProt P04637); assay: TOX21_p53_BLA_p4_ratio: Tox21 HCT-116 p53 Agonism Beta-lactamase Assay, Ratio, Phase 4 (AID 2283601)
Summary of the method: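 HCT116 cells carrying an inducible beta-lactamase reporter were plated at 4000 cells/well, rested 5 h, then exposed to compounds in DMSO (217-fold dilution) for 16 h at 37C. CCF4-AM substrate was loaded 2 h at room temperature; 460/530 nm emission ratio scored gain-of-signal versus DMSO.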

[10] = target: Retinoic acid receptor RXR-alpha (Homo sapiens) (UniProt P19793); assay: OT_NURR1_NURR1RXRa_1440: Odyssey Thera (OT) 24-hour HEK293T Protein Complementation Assay for Nurr1/retinoid X receptor (RXR) (AID 2283386)
Summary of the method: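 HEK293T protein-fragment complementation of Nurr1 and RXRα fused to reporter fragments; compounds 24 h. Fluorescence gain from reconstituted reporter fitted versus DMSO.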

[11] = TOX21_p53_BLA_p3_viability: Viability Assessment in the Tox21 HCT-116 p53 Agonism Beta-lactamase Assay, Phase 3 (AID 2283593);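 note: cells exposed to compound for 16 h before reading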
Summary of the method: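 HCT-116 cells (4000/well) rested 5 h at 37C, then got DMSO compounds by pin tool (217-fold dilution) for 16 h at 37C, 5% CO2. After the bla read, CellTiter-Glo was added and luminescence read at 30 min, room temperature.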

[12] = target: Bile acid receptor (Homo sapiens) (UniProt Q96RI1); assay: OT_FXR_FXRSRC1_0480: Odyssey Thera (OT) 8-hour HEK293T Protein-Complementation Assay for Farnesoid X receptor/SRC-1 Co-activator (AID 2283383)
Summary of the method: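 HEK293T protein-fragment complementation assay: FXR and SRC-1 coactivator are fused to reporter fragments, and their interaction restores a fluorescent reporter. Readout was taken 8 h after dosing, with gain of signal fit relative to DMSO.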

[13] = ATG_XTT_Cytotoxicity: Cytotoxicity Assessment in the Attagene TRANS-FACTORIAL HepG2 Assay (AID 2283584);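 for AC50: cells exposed to compound for 24 h before reading; active means loss of viability signal versus DMSO baseline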
Summary of the method: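 Viability endpoint from XTT after 24 h chemical exposure of reporter-transfected human HepG2 liver cells; signal loss fitted relative to DMSO negative control.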

[14] = LTEA_HepaRG_LDH_cytotoxicity: Cytotoxicity Assessment in the Life Technologies and Expression Analysis (LTEA) Assay (AID 2283563);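 note: LDH activity released into spent culture medium as a marker of cell death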
Summary of the method: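 LDH release into culture medium read after 48 h chemical treatment of HepaRG cells. Duplicate wells, eight-point half-log series topping at 100 uM, 0.5% DMSO vehicle and baseline.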

Measured: AC50

CN(C)C(=S)SSC(=S)N(C)C
inconclusive: [1] 18.6 µM | [2] 50 µM | [3] 45.6 µM | [6] 46.1 µM | [8] 12.2 µM and 5.61 µM
active: [4] 33 µM | [5] 29.3 µM | [7] 77 µM
inactive: [3] | [5] | [8] | [9]

CCCCc1ccccc1
inconclusive: [1] 50 µM | [2] 50 µM | [10] 50 µM

COP(=S)(OC)Oc1ccc([N+](=O)[O-])cc1
active: [1] 50 µM
inactive: [3] | [6]
inconclusive: [2] 50 µM | [11] 46.1 µM | [6] 0.851 µM | [8] 46.1 µM

N#CN=C(N)N
inconclusive: [12] 4.12 µM | [13] 100 µM | [3] 46.7 µM | [11] 46.1 µM and 46.7 µM | [7] 46.1 µM

Oc1ccc(Cl)cc1Cl
inactive: [1] | [2] | [6]
inconclusive: [2] 7.25 µM | [10] 50 µM | [13] 100 µM | [3] 46.1 µM | [11] 45.8 µM | [6] 7.4 µM | [7] 45.8 µM | [8] 46.1 µM | [9] 45.8 µM

CC(C)(C)OOC(C)(C)C
inactive: [13] | [11] | [6] | [7] | [9]
inconclusive: [1] 6.82 µM | [2] 26.2 µM and 11.8 µM | [10] 26.2 µM | [3] 24.2 µM | [4] 45.3 µM | [11] 45.3 µM | [5] 24.2 µM | [6] 24.2 µM | [8] 45.3 µM

Nc1ccc(N)cc1
inactive: [10]
inconclusive: [12] 0.03 µM

COC(=O)c1ccccc1C(=O)OC
inactive: [12] | [10] | [6] | [7]
inconclusive: [3] 31.4 µM and 16.8 nM and 23 µM | [5] 46.3 µM | [6] 28.4 nM and 23 µM | [7] 46.1 µM

CCSC(=O)N(CC)C1CCCCC1
inactive: [12]
inconclusive: [10] 50 µM

Cc1c(F)c(F)c(COC(=O)C2C(/C=C(\Cl)C(F)(F)F)C2(C)C)c(F)c1F (stereo not given)
inactive: [1] | [2] | [4] | [8]
inconclusive: [10] 28.2 µM and 29.7 µM | [7] 19 µM | [9] 46.1 µM

C=C(C)C#N
inactive: [6] | [8]
inconclusive: [1] 4.29 µM | [2] 9.92 µM | [3] 46.1 µM and 45.1 nM | [4] 48.3 µM | [11] 48.3 µM | [5] 48.3 µM | [8] 13.8 µM | [9] 46.1 µM

COc1nn(C(=O)NS(=O)(=O)c2ccccc2OC(F)(F)F)c(=O)n1C
inactive: [10]
inconclusive: [12] 46.5 µM

CNC(=O)Oc1cccc(N=CN(C)C)c1
inconclusive: [1] 50.5 µM | [2] 15.2 µM and 50.5 µM | [10] 33.5 µM and 50.5 µM | [14] 0.00318 µM | [3] 46.1 µM | [11] 46.1 µM | [8] 46.1 µM

CCN(CC)C(=O)SCc1ccc(Cl)cc1
inactive: [6] | [7]
active: [12] 40 µM
inconclusive: [10] 17.8 µM and 50 µM | [3] 47.2 µM | [4] 46.1 µM and 47.2 µM | [11] 15.8 µM | [5] 47.2 µM | [6] 46.1 µM | [8] 46.1 µM and 47.2 µM | [9] 46.1 µM

CC(Oc1ccc(Cl)cc1Cl)C(=O)O (stereo not given)
inactive: [2] | [3] | [6]
inconclusive: [1] 50 µM | [10] 50 µM | [3] 46.1 µM | [8] 46.2 µM | [9] 71.4 µM
